Data as given in paper doi:10.1101/483925.
The exact form of at least one protein or probe is not confirmed. At least one verdict was read from the data and is not stated in words by the source.

Columns and labels:
Test in all cases: EMSA
Settings in all cases: higher order complex
[1] = tested on: FD T282E full-length + 14-3-3nu (GRF7) + FT
[2] = tested on: FD full-length + 14-3-3nu (GRF7) + TFL1
[3] = tested on: FD T282E full-length + 14-3-3nu (GRF7) + TFL1

Measured: binding result

CGAGATGTCGACACGTGTCCAAACTCAT (double strand) [SEP3 promoter G-box probe]
binds: all assays above
